Experimental data reported in article PMC7156037.
These are yes or no findings as the source states them, for the method shown. In cells and extracts the contact can be indirect. Binding calls can cover weak binding; strength is not graded here. Tags and fused reporters may be left off the sequences shown.

Protein sequences, listed by entry. Tags and fused reporters are not part of them. Lines headed by an entry give the natural chain unless they say otherwise; changes in a name come on top.
UniProt Q9LEV0: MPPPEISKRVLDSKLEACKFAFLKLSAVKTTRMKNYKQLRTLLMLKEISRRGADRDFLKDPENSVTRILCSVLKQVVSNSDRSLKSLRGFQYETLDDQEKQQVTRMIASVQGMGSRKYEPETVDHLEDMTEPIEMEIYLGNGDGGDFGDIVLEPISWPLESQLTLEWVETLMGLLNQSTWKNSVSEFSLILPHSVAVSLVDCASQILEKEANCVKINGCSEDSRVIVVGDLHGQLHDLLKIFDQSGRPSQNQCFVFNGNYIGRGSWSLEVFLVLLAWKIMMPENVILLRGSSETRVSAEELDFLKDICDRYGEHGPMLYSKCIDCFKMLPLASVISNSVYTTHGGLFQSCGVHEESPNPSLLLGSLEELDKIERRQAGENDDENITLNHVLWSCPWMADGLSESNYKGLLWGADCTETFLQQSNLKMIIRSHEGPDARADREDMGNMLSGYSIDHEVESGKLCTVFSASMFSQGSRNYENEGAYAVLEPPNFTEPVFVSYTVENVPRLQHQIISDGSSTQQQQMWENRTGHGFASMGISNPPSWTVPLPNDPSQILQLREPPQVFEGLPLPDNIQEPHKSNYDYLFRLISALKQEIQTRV

Molecular target: PP7-like (PP7L), FLAG-tagged (A. thaliana) (UniProt Q9LEV0)
Experiment: co-IP; FLAG-tagged bait captured on M2 magnetic FLAG-beads from extract of 3-week-old seedlings co-expressing both tagged proteins; IP buffer 50mM Tris pH 7.6, 150mM NaCl, 5mM MgCl2, 0.1% Nonidet P-40, 10% glycerol, 0.5 mM DTT; 2 hour at 4°C; three washes; Western blot with anti-FLAG and anti-MYC; plants expressing only one tagged protein as negative controls

| Binder | binding |
| --- | --- |
| … OF … (MAIN), MYC-tagged (protein, UniProt Q9LMT7 1-478) MPVLYEQDKHVSSAILTGQERGVLRCQERTSLLHHWKLTKEQIALVEKAGFGWFRLVGSISLNNSLISALVERWRRETNTFHFPCGEMTITLDEVSLILGLAVDGKPVVGVKEKDEDPSQVCLRLLGKLPKGELSGNRVTAKWLKESFAECPKGATMKEIEYHTRAYLIYIVGSTIFATTDPSKISVDYLILFEDFEKAGEYAWGAAALAFLYRQIGNASQRSQSIIGGCLTLLQCWSYFHLNIDRPKRTTRQFPLALLWKGRQQSRSKNDLFKYRKALDDLDPSNVSWCPFEGDLDIVPQSFKDNLLLGRSRTKLIGPKVVEWHFPDRCMKQFGLCQVIPGEVPPRKNEKNHDEDLLEDMNTADEEWMRRRENIVENGGGNGDESEYMQWFNSITVPKLHRDTSLEADIMNVQAAILQFDEVASTLSLEDLHPEEREAIEEAVMSMSNALRVGDWYEASTTNKRKRREEQQQTDWSE | binds |
| MAIN-LIKE 1 (MAIL1), MYC-tagged (protein, UniProt Q9SK32 1-509) MDIDVGPVDPSVLYEQDLHVSSAVWEGQERGLLRCQEHTSLLHQWKLTDEQINLVDKAGFGYFRKIGPMSLNNSLISALVERWRRETNTFHLPLGEMTITLDEVALVLGLEIDGDPIVGSKVGDEVAMDMCGRLLGKLPSAANKEVNCSRVKLNWLKRTFSECPEDASFDVVKCHTRAYLLYLIGSTIFATTDGDKVSVKYLPLFEDFDQAGRYAWGAAALACLYRALGNASLKSQSNICGCLTLLQCWSYFHLDIGRPEKSEACFPLALLWKGKGSRSKTDLSEYRRELDDLDPSKITWCPYERFENLIPPHIKAKLILGRSKTTLVCFEKIELHFPDRCLRQFGKRQPIPLKVKRRDRKNRRLDDLDTSMSLACEEWAERGDHIVDSPGGGNVVDDGAYMEWYARISITKLYREAFLESQVMNMIACMREFEEAASGIALERLSPAEREVMESVKDTFANSLTFGGWQEVAVNSGYGKRRRRNEHTPTPNNGGGNDISSLLLQKEDS | binds |
